PubChem BioAssay AID504744, Drosophila RNAi Screening Center – 2011
Screen: 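Find genes whose loss alters insulin-driven dAkt phosphorylation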 (primary screen). System: Drosophila Kc167 cells. Knock-down reagent: long dsRNA against Drosophila genes, 250 ng dsRNA per well of a 384-well plate. Time to read-out: 3 days of knock-down, then overnight serum-free starvation before stimulation. Conditions: bovine insulin at 387 nM for 10 minutes after 12 h without serum. Measured: 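In-cell antibody fluorescence for phospho-dAkt in each well over DNA-dye signal, with log2 residuals expressed as z-scores adjusted for cell count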. Rule for the call: 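Hit in the insulin screen when the two-replicate mean z-score is more extreme than plus or minus 2.5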.
The screen tested about 23,000 reagents; this is a random part of those that have a named target and a result. Over the whole deposit, 98 (0.43%) were called active. 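Only hit calls are given; the phospho-dAkt signals, z-scores and hit direction were not deposited.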 A plus sign joins genes that one reagent is predicted to hit.

| target gene | amplicon | activity call |
| --- | --- | --- |
| CG15465 | DRSC18048 | inactive |
| CG12480 | DRSC19460 | inactive |
| bnk (bottleneck) | DRSC16912 | inactive |
| Hrb27C (Heterogeneous nuclear ribonucleoprotein at 27C) | DRSC03347 | inactive |
| Oseg5 (Outer segment 5) | DRSC03209 | inactive |
| CG11378 | DRSC18627 | inactive |
| CG5302 (retired record) | DRSC15764 | inactive |
| CG5302 (retired record) | DRSC15765 | inactive |
| CG5302 (retired record) | DRSC22671 | inactive |
| shu (shutdown) | DRSC04484 | inactive |
| Drep3 (DNA fragmentation factor-related protein 3) | DRSC06312 | inactive |
| Drep3 (DNA fragmentation factor-related protein 3) | DRSC07529 | inactive |
| Drep3 (DNA fragmentation factor-related protein 3) | DRSC22344 | inactive |
| CG7115 | DRSC02000 | inactive |
| Idgf1 (Imaginal disc growth factor 1) | DRSC03349 | inactive |
| RpS27 (Ribosomal protein S27) | DRSC14244 | inactive |
| CG13230 | DRSC06350 | inactive |
| CG15631 | DRSC00466 | inactive |
| flip (flippy) | DRSC12326 | inactive |
| CG34301 | DRSC12704 | inactive |
| CG30110 | DRSC05686 | inactive |
| CG17739 | DRSC06689 | inactive |
| whd (withered) | DRSC07351 | inactive |
| QC (Glutaminyl cyclase) | DRSC09736 | inactive |
| CG8202 | DRSC16396 | inactive |
| dnc (dunce) | DRSC17758 | inactive |
| dnc (dunce) | DRSC17759 | inactive |
| dnc (dunce) | DRSC17911 | inactive |
| dnc (dunce) | DRSC18763 | inactive |
| dnc (dunce) | DRSC18764 | inactive |
| CG14352 | DRSC00382 | inactive |
| CG4842 | DRSC10453 | inactive |
| BomT3 (Bomanin Tailed 3) | DRSC13537 | inactive |
| BomT3 (Bomanin Tailed 3) | DRSC15871 | inactive |
| CG5167 | DRSC15728 | inactive |
| Diedel3 (Diedel 3) | DRSC19544 | inactive |
| CG16775 | DRSC10225 | inactive |
| Taf2 (TBP-associated factor 2) | DRSC11298 | inactive |
| CG42557 + CG42558 | DRSC13963 | inactive |
| CG42557 + CG42558 | DRSC16329 | inactive |
| CG10934 | DRSC06017 | inactive |
| CG32040 | DRSC08981 | inactive |
| CG32040 | DRSC22459 | inactive |
| YL-1 | DRSC02765 | inactive |
| CG11756 | DRSC19424 | inactive |
| Use1 (Unconventional SNARE in the ER 1) | DRSC10180 | inactive |
| CG3955 | DRSC06859 | inactive |
| Nmd3 (Nonsense-mediated mRNA 3) | DRSC18687 | inactive |
| Nmd3 (Nonsense-mediated mRNA 3) | DRSC22834 | inactive |
| CG30288 | DRSC22005 | inactive |
| cmb (combover) | DRSC09790 | inactive |
| Cpr47Ec (Cuticular protein 47Ec) | DRSC07332 | inactive |
| CG32246 | DRSC08115 | inactive |
| gt (giant) | DRSC18782 | inactive |
| wek (weckle) | DRSC03561 | inactive |
| CG11626 | DRSC14336 | inactive |
| Osbp (Oxysterol binding protein) | DRSC16779 | inactive |
| CG7523 | DRSC16254 | inactive |
| TfIIB (Transcription factor IIB) | DRSC03454 | inactive |
| CG12689 | DRSC17879 | inactive |
| CG17242 | DRSC00493 | inactive |
| FRG1 (FSHD region gene 1) | DRSC10648 | inactive |
| CG11294 | DRSC17777 | inactive |
| CG9630 | DRSC16527 | inactive |
| CG1909 | DRSC17150 | inactive |
| yellow-h | DRSC17141 | inactive |
| CG32249 | DRSC08101 | inactive |
| CG32249 | DRSC08177 | inactive |
| CG32249 | DRSC22444 | inactive |
| gd (gastrulation-defective) | DRSC20336 | inactive |
| Atat (alpha-tubulin acetylase) | DRSC10392 | inactive |
| Irbp18 (Inverted repeat binding protein 18 kDa) | DRSC10612 | inactive |
| CG12377 (retired record) | DRSC11671 | inactive |
| CG12377 (retired record) | DRSC11672 | inactive |
| Set2 (SET domain containing 2) | DRSC19765 | inactive |
| CG5567 | DRSC10517 | inactive |
| MED7 (Mediator complex subunit 7) | DRSC16059 | inactive |
| cv-c (crossveinless c) | DRSC14969 | inactive |
| cv-c (crossveinless c) | DRSC14970 | inactive |
| cv-c (crossveinless c) | DRSC14971 | inactive |
| cv-c (crossveinless c) | DRSC14972 | inactive |
| cv-c (crossveinless c) | DRSC14973 | inactive |
| cv-c (crossveinless c) | DRSC16428 | inactive |
| MTPAP (mitochondrial poly(A) polymerase) | DRSC18585 | inactive |
| CG13039 | DRSC09920 | inactive |
| CG3473 | DRSC01915 | inactive |
| GstT4 (Glutathione S transferase T4) | DRSC19757 | inactive |
| CG4372 | DRSC04466 | inactive |
| spn-D (spindle D) | DRSC22641 | inactive |
| Cont (Contactin) | DRSC12149 | inactive |
| tinc (tincar) | DRSC14798 | inactive |
| tinc (tincar) | DRSC14799 | inactive |
| tinc (tincar) | DRSC16308 | inactive |
| tinc (tincar) | DRSC16309 | active |
| Tctp (Translationally controlled tumor protein) | DRSC15649 | inactive |
| Spt3 | DRSC15465 | inactive |
| park + Targ3 | DRSC11617 | inactive |
| cos (costa) | DRSC07598 | inactive |
| CG3594 | DRSC04393 | inactive |
| CG3594 | DRSC21959 | inactive |
| SIDL (Shal Interactor of Di-Leucine Motif) | DRSC16077 | inactive |
| PpV (Protein phosphatase V) | DRSC18700 | inactive |
| ptc (patched) | DRSC05117 | inactive |
| ptc (patched) | DRSC07669 | inactive |
| Eig71Ei | DRSC11156 | inactive |
| CG43689 | DRSC18383 | inactive |
| CG43689 | DRSC22467 | inactive |

Entries above whose gene name begins with S or s:
| target gene | amplicon | activity call |
| --- | --- | --- |
| shu (shutdown) | DRSC04484 | inactive |
| Set2 (SET domain containing 2) | DRSC19765 | inactive |
| spn-D (spindle D) | DRSC22641 | inactive |
| Spt3 | DRSC15465 | inactive |
| SIDL (Shal Interactor of Di-Leucine Motif) | DRSC16077 | inactive |
